By UniProt entry, the sequences of proteins in these tests, tags left out.
UniProt Q15154: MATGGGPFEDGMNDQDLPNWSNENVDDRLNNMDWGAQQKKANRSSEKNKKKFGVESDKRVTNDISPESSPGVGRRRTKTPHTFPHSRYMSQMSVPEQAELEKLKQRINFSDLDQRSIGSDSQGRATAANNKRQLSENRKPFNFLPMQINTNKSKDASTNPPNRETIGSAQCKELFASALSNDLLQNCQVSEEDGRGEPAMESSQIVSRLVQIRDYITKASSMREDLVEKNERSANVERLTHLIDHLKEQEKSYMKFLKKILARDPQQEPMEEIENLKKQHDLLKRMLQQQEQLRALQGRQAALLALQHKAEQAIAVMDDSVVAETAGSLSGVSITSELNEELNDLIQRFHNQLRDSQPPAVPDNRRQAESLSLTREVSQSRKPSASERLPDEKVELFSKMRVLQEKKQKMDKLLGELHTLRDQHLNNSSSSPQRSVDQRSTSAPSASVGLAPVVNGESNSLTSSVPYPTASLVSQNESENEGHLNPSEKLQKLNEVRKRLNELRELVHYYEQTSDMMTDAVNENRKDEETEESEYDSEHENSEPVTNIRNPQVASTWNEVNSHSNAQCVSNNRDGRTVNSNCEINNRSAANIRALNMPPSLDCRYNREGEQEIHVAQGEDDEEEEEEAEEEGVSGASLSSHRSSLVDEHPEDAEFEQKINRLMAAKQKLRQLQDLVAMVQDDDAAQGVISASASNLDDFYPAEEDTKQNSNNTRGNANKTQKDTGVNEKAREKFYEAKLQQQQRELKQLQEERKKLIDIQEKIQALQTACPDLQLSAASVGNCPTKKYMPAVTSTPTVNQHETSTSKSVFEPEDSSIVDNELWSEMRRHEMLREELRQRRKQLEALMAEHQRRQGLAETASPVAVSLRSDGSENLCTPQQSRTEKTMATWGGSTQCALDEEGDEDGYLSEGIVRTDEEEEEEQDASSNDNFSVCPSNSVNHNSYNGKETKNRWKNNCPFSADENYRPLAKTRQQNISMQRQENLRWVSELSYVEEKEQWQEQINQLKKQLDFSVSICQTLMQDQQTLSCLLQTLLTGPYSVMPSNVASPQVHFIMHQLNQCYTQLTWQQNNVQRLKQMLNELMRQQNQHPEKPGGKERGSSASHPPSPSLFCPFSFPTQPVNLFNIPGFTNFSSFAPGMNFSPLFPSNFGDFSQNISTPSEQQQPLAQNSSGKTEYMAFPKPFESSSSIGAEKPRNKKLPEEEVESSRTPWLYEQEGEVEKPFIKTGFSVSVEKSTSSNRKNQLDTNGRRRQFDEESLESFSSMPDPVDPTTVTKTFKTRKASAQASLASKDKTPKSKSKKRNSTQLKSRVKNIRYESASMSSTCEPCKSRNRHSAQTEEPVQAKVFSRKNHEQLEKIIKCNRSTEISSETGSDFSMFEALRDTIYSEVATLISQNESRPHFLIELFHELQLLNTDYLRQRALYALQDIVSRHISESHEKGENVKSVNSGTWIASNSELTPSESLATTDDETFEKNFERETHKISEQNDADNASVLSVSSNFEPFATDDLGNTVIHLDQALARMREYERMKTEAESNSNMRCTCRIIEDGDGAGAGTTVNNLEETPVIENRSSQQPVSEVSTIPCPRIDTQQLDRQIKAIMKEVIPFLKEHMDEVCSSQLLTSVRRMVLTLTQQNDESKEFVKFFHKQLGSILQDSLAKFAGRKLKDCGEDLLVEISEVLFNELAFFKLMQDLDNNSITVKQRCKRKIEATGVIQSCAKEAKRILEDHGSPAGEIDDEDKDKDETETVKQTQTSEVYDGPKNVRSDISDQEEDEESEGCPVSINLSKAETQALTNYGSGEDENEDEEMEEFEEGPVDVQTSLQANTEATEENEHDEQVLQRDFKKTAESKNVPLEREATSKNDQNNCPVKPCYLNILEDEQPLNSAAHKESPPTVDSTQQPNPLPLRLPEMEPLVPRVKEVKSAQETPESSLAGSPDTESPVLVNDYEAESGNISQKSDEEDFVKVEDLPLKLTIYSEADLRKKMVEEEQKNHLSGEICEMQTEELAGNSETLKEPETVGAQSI
UniProt Q4AC94: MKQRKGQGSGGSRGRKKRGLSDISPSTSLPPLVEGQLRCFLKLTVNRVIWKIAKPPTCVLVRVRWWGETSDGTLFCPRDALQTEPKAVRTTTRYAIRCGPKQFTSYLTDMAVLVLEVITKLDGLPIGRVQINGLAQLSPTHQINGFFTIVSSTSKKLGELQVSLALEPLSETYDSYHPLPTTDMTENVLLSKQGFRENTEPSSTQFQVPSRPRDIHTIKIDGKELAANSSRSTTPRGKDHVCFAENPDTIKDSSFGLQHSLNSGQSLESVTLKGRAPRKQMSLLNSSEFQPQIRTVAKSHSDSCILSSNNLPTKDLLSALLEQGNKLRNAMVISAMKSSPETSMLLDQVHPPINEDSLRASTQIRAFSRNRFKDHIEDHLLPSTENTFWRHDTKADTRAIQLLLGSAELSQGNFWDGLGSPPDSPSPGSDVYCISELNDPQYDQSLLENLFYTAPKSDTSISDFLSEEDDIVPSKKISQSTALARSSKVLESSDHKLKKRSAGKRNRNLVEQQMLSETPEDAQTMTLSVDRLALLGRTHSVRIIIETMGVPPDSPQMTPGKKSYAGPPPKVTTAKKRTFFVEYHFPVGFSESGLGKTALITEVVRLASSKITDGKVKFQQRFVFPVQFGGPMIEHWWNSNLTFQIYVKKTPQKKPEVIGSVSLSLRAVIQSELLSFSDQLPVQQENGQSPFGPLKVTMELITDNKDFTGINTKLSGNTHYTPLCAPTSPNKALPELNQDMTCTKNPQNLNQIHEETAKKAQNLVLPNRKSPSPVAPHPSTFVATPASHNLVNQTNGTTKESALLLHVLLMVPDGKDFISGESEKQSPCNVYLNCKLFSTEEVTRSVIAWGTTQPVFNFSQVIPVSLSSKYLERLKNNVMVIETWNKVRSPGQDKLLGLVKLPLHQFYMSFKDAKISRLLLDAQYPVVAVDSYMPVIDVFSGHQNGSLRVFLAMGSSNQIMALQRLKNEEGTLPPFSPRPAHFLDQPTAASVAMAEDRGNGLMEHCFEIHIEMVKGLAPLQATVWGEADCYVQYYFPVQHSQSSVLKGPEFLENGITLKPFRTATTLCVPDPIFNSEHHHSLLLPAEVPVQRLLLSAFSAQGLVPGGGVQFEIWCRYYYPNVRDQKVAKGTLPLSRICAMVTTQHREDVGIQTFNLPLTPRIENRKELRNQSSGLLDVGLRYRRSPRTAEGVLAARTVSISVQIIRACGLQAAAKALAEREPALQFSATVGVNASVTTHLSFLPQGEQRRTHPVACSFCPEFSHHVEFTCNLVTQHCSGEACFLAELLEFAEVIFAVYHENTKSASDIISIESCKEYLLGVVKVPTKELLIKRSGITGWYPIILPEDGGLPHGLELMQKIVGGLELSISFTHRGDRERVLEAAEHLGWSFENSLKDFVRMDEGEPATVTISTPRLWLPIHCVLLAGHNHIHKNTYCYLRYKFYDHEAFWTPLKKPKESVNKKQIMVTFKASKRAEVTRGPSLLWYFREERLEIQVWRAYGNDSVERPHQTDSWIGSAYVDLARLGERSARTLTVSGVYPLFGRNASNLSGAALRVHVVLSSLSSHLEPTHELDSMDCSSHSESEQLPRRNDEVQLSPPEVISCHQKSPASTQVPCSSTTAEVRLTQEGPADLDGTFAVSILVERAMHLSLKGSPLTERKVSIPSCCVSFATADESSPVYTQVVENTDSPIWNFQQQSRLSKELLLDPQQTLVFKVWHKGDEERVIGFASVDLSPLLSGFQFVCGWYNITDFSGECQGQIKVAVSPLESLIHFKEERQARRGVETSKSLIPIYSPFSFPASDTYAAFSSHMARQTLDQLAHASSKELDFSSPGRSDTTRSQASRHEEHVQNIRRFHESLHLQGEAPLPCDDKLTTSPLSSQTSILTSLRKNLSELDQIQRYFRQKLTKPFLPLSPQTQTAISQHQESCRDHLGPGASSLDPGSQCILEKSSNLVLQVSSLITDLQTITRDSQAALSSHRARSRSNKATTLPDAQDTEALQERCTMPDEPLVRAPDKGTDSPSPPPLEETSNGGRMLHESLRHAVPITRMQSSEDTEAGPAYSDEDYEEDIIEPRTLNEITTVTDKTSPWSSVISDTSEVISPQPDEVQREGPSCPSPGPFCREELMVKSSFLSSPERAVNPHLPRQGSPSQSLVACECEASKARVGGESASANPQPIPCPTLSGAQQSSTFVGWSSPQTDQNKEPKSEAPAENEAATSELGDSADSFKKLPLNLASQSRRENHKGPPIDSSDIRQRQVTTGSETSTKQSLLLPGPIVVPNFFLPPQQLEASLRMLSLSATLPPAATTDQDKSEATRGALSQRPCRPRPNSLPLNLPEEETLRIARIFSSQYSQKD
UniProt P57678: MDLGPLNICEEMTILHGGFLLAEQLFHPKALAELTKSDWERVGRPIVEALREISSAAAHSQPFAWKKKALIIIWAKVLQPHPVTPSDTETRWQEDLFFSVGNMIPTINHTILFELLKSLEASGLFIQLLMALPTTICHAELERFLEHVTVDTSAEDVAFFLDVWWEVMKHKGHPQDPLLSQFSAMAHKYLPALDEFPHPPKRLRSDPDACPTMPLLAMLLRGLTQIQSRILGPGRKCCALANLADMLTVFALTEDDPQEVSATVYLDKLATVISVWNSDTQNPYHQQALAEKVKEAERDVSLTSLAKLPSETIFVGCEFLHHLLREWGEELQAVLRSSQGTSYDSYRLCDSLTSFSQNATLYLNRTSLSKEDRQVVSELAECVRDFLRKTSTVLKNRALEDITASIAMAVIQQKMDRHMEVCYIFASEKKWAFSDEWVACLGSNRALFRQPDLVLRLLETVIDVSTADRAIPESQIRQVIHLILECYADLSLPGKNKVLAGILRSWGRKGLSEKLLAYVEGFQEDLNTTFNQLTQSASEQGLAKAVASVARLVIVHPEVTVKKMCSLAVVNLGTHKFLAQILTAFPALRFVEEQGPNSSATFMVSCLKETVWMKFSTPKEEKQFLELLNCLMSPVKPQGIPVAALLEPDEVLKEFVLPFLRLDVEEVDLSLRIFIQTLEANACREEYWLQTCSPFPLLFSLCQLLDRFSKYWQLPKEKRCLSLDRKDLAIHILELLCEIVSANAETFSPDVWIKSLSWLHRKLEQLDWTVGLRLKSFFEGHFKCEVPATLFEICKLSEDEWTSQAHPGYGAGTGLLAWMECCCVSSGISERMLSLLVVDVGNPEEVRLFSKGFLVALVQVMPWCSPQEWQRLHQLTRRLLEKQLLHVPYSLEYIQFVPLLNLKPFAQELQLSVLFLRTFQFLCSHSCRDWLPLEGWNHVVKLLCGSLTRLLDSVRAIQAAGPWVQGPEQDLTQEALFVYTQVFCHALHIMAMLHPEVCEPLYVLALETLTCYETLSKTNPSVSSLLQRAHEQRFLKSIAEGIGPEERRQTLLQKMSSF

In publication doi:10.1101/2023.07.26.549647:

T1: FLAG-BirA*-TBCCD1 (human TBCC domain-containing protein 1) (human) (UniProt Q9NVR7)
T1 sequence: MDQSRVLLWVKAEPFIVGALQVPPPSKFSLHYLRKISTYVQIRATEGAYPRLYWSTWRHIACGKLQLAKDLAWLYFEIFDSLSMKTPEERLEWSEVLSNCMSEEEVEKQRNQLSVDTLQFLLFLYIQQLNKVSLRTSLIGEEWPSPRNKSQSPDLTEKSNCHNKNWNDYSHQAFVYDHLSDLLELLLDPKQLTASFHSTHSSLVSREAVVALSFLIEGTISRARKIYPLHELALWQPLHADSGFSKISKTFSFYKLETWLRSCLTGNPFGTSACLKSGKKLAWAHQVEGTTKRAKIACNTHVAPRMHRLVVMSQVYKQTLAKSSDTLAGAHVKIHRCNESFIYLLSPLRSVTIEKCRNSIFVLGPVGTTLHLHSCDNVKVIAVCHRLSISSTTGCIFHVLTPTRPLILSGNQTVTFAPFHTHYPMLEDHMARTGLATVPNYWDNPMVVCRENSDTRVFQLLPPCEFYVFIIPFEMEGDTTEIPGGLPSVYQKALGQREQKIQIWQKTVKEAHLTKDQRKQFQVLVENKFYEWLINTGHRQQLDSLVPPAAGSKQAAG

B1: WASHC4 (protein, UniProt Q2M389 1-1173)
chain: MAVETLSPDWEFDRVDDGSQKIHAEVQLKNYGKFLEEYTSQLRRIEDALDDSIGDVWDFNLDPIALKLLPYEQSSLLELIKTENKVLNKVITVYAALCCEIKKLKYEAETKFYNGLLFYGEGATDASMVEGDCQIQMGRFISFLQELSCFVTRCYEVVMNVVHQLAALYISNKIAPKIIETTGVHFQTMYEHLGELLTVLLTLDEIIDNHITLKDHWTMYKRLLKSVHHNPSKFGIQEEKLKPFEKFLLKLEGQLLDGMIFQACIEQQFDSLNGGVSVSKNSTFAEEFAHSIRSIFANVEAKLGEPSEIDQRDKYVGICGLFVLHFQIFRTIDKKFYKSLLDICKKVPAITLTANIIWFPDNFLIQKIPAAAKLLDRKSLQAIKIHRDTFLQQKAQSLTKDVQSYYVFVSSWMMKMESILSKEQRMDKFAEDLTNRCNVFIQGFLYAYSISTIIKTTMNLYMSMQKPMTKTSVKALCRLVELLKAIEHMFYRRSMVVADSVSHITQHLQHQALHSISVAKKRVISDKKYSEQRLDVLSALVLAENTLNGPSTKQRRLIVSLALSVGTQMKTFKDEELFPLQVVMKKLDLISELRERVQTQCDCCFLYWHRAVFPIYLDDVYENAVDAARLHYMFSALRDCVPAMMHARHLESYEILLDCYDKEIMEILNEHLLDKLCKEIEKDLRLSVHTHLKLDDRNPFKVGMKDLALFFSLNPIRFFNRFIDIRAYVTHYLDKTFYNLTTVALHDWATYSEMRNLATQRYGLVMTEAHLPSQTLEQGLDVLEIMRNIHIFVSRYLYNLNNQIFIERTSNNKHLNTINIRHIANSIRTHGTGIMNTTVNFTYQFLKKKFYIFSQFMYDEHIKSRLIKDIRFFREIKDQNDHKYPFDRAEKFNRGIRKLGVTPEGQSYLDQFRQLISQIGNAMGYVRMIRSGGLHCSSNAIRFVPDLEDIVNFEELVKEEGLAEETLKAARHLDSVLSDHTRNSAEGTEYFKMLVDVFAPEFRRPKNIHLRNFYIIVPPLTLNFVEHSISCKEKLNKKNKIGAAFTDDGFAMGVAYILKLLDQYREFDSLHWFQSVREKYLKEIRAVAKQQNVQSASQDEKLLQTMNLTQKRLDVYLQEFELLYFSLSSARIFFRADKTAAEENQEKKEKEEETKTSNGDLSDSTVSADPVVK
B2: MED4 (protein, UniProt Q9NPJ6 1-270)
chain: MAASSSGEKEKERLGGGLGVAGGNSTRERLLSALEDLEVLSRELIEMLAISRNQKLLQAGEENQVLELLIHRDGEFQELMKLALNQGKIHHEMQVLEKEVEKRDSDIQQLQKQLKEAEQILATAVYQAKEKLKSIEKARKGAISSEEIIKYAHRISASNAVCAPLTWVPGDPRRPYPTDLEMRSGLLGQMNNPSTNGVNGHLPGDALAAGRLPDVLAPQYPWQSNDMSMNMLPPNHSSDFLLEPPGHNKENEDDVEIMSTDSSSSSSESD
B3: OFD1 (protein, UniProt O75665 1-1012)
chain: MMAQSNMFTVADVLSQDELRKKLYQTFKDRGILDTLKTQLRNQLIHELMHPVLSGELQPRSISVEGSSLLIGASNSLVADHLQRCGYEYSLSVFFPESGLAKEKVFTMQDLLQLIKINPTSSLYKSLVSGSDKENQKGFLMHFLKELAEYHQAKESCNMETQTSSTFNRDSLAEKLQLIDDQFADAYPQRIKFESLEIKLNEYKREIEEQLRAEMCQKLKFFKDTEIAKIKMEAKKKYEKELTMFQNDFEKACQAKSEALVLREKSTLERIHKHQEIETKEIYAQRQLLLKDMDLLRGREAELKQRVEAFELNQKLQEEKHKSITEALRRQEQNIKSFEETYDRKLKNELLKYQLELKDDYIIRTNRLIEDERKNKEKAVHLQEELIAINSKKEELNQSVNRVKELELELESVKAQSLAITKQNHMLNEKVKEMSDYSLLKEEKLELLAQNKLLKQQLEESRNENLRLLNRLAQPAPELAVFQKELRKAEKAIVVEHEEFESCRQALHKQLQDEIEHSAQLKAQILGYKASVKSLTTQVADLKLQLKQTQTALENEVYCNPKQSVIDRSVNGLINGNVVPCNGEISGDFLNNPFKQENVLARMVASRITNYPTAWVEGSSPDSDLEFVANTKARVKELQQEAERLEKAFRSYHRRVIKNSAKSPLAAKSPPSLHLLEAFKNITSSSPERHIFGEDRVVSEQPQVGTLEERNDVVEALTGSAASRLRGGTSSRRLSSTPLPKAKRSLESEMYLEGLGRSHIASPSPCPDRMPLPSPTESRHSLSIPPVSSPPEQKVGLYRRQTELQDKSEFSDVDKLAFKDNEEFESSFESAGNMPRQLEMGGLSPAGDMSHVDAAAAAVPLSYQHPSVDQKQIEEQKEEEKIREQQVKERRQREERRQSNLQEVLERERRELEKLYQERKMIEESLKIKIKKELEMENELEMSNQEIKDKSAHSENPLEKYMKIIQQEQDQESADKSSKKMVQEGSLVDTLQSSDKVESLTGFSHEELDDSW
B4: SSX2IP (protein, UniProt Q9Y2D8 1-614)
chain: MGDWMTVTDPGLSSESKTISQYTSETKMSPSSLYSQQVLCSSIPLSKNVHSFFSAFCTEDNIEQSISYLDQELTTFGFPSLYEESKGKETKRELNIVAVLNCMNELLVLQRKNLLAQENVETQNLKLGSDMDHLQSCYSKLKEQLETSRREMIGLQERDRQLQCKNRNLHQLLKNEKDEVQKLQNIIASRATQYNHDMKRKEREYNKLKERLHQLVMNKKDKKIAMDILNYVGRADGKRGSWRTGKTEARNEDEMYKILLNDYEYRQKQILMENAELKKVLQQMKKEMISLLSPQKKKPRERVDDSTGTVISDVEEDAGELSRESMWDLSCETVREQLTNSIRKQWRILKSHVEKLDNQVSKVHLEGFNDEDVISRQDHEQETEKLELEIQQCKEMIKTQQQLLQQQLATAYDDDTTSLLRDCYLLEEKERLKEEWSLFKEQKKNFERERRSFTEAAIRLGLERKAFEEERASWLKQQFLNMTTFDHQNSENVKLFSAFSGSSDWDNLIVHSRQPQKKPHSVSNGSPVCMSKLTKSLPASPSTSDFCQTRSCISEHSSINVLNITAEEIKPNQVGGECTNQKWSVASRPGSQEGCYSGCSLSYTNSHVEKDDLP
B5: Centrobin (CNTROB) (protein, UniProt Q8N137 1-903)
chain: MATSADSPSSPLGAEDLLSDSSEPPGLNQVSSEVTSQLYASLRLSRQAEATARAQLYLPSTSPPHEGLDGFAQELSRSLSVGLEKNLKKKDGSKHIFEMESVRGQLQTMLQTSRDTAYRDPLIPGAGSERREEDSFDSDSTATLLNTRPLQDLSPSSSAQALEELFPRYTSLRPGPPLNPPDFQGLRDALDSEHTRRKHCERHIQSLQTRVLELQQQLAVAVAADRKKDTMIEQLDKTLARVVEGWNRHEAERTEVLRGLQEEHQAAELTRSKQQETVTRLEQSLSEAMEALNREQESARLQQRERETLEEERQALTLRLEAEQQRCCVLQEERDAARAGQLSEHRELETLRAALEEERQTWAQQEHQLKEHYQALQEESQAQLEREKEKSQREAQAAWETQHQLALVQSEVRRLEGELDTARRERDALQLEMSLVQARYESQRIQLESELAVQLEQRVTERLAQAQESSLRQAASLREHHRKQLQDLSGQHQQELASQLAQFKVEMAEREERQQQVAEDYELRLAREQARVCELQSGNQQLEEQRVELVERLQAMLQAHWDEANQLLSTTLPPPNPPAPPAGPSSPGPQEPEKEERRVWTMPPMAVALKPVLQQSREARDELPGAPPVLCSSSSDLSLLLGPSFQSQHSFQPLEPKPDLTSSTAGAFSALGAFHPDHRAERPFPEEDPGPDGEGLLKQGLPPAQLEGLKNFLHQLLETVPQNNENPSVDLLPPKSGPLTVPSWEEAPQVPRIPPPVHKTKVPLAMASSLFRVPEPPSSHSQGSGPSSGSPERGGDGLTFPRQLMEVSQLLRLYQARGWGALPAEDLLLYLKRLEHSGTDGRGDNVPRRNTDSRLGEIPRKEIPSQAVPRRLATAPKTEKPPARKKSGHPAPSSMRSRGGVWR

Molecular target: T1, FLAG-BirA*-TBCCD1 (human TBCC domain-containing protein 1) (human)
Experiment: proximity labelling

Row | Molecule | binding
1 | B1 | binds
2 | B2 | binds
3 | B3 | binds
4 | B4 | binds
5 | B5 | binds

Molecular target: T1, FLAG-BirA*-TBCCD1 (human TBCC domain-containing protein 1) (human)
Experiment: proximity labelling
Remark: another data set of the same source

Row | Molecule | binding
6 | PCM1 (from UniProt Q15154 1-2024) | binds
7 | CEP152 (from UniProt O94986 1-1710) | binds
8 | RPGRIP1L (from UniProt Q68CZ1 1-1315) | binds
9 | KIF14 (from UniProt Q15058 1-1648) | binds
10 | C2CD3 (from UniProt Q4AC94 1-2353) | binds
11 | CSPP1 (from UniProt Q1MSJ5 1-1256) | binds
12 | GEMIN4 (from UniProt P57678 1-1058) | binds

These are yes or no findings as the source states them, for the method shown. Binding seen in cells or lysates may run through a third protein. Here binding means that the protein was enriched with, or labelled near, the bait; the list need not be complete. Tags and fused reporters may be left off the sequences shown.
